PubChem BioAssay AID1671195 | Yale University, 2021
Assay: 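Regulators of LDL receptor activity judged by labelled LDL uptake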 (primary screen). Cells: human Huh7 hepatoma cells. Reagents: siRNA pool against human genes, 18 nM. Timing: about 2 to 2.5 days of knockdown, then 8 h LDL uptake. Conditions: DiI-labelled LDL at 30 µg/ml for 8 h, in lipoprotein-deficient serum medium. Measurement: 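Fluorescent LDL signal imaged in cells, scaled to the plate median, robust z-score for each replicate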. Direction: robust z-score: higher = more LDL uptake after knockdown. Hit rule: 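a gene counts as active if at least two replicate z-scores exceed ±2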.
This is one part, drawn at random, of about 22,000 reagents tested. About 1,510 of them (6.9%) count as active. 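Active includes knockdowns raising or lowering LDL uptake; positive z-scores mean more uptake, negative mean less.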 The numbers tell different reagents against one gene apart. Reagent sequences are not shown.

The opening 7 records as a preview:
no.	target	reagent no.	robust z-score, replicate 1	robust z-score, replicate 2	robust z-score, replicate 3	Outcome
1	DPH3 (diphthamide biosynthesis 3)	1	-0.223	-0.425	-0.563	inactive
2	LOC283801 (retired record)	1	1.7	1.29	1.33	inactive
3	ODR4 (odr-4 GPCR localization factor homolog)	1	0.833	1.71	0.153	inactive
4	ZWINT (ZW10 interacting kinetochore protein)	1	-0.464	-0.886	0.00873	inactive
5	TNXB (tenascin XB)	1	1.65	-0.294	1.23	inactive
6	PPM1F (protein phosphatase, Mg2+/Mn2+ dependent 1F)	1	0.248	0.156	0.214	inactive
7	IL17RD (interleukin 17 receptor D)	1	-0.568	-1.01	-0.112	inactive

Results, from the first entry:
no.	target	reagent no.	robust z-score, replicate 1	robust z-score, replicate 2	robust z-score, replicate 3	Outcome
1	DPH3 (diphthamide biosynthesis 3)	1	-0.223	-0.425	-0.563	inactive
2	LOC283801 (retired record)	1	1.7	1.29	1.33	inactive
3	ODR4 (odr-4 GPCR localization factor homolog)	1	0.833	1.71	0.153	inactive
4	ZWINT (ZW10 interacting kinetochore protein)	1	-0.464	-0.886	0.00873	inactive
5	TNXB (tenascin XB)	1	1.65	-0.294	1.23	inactive
6	PPM1F (protein phosphatase, Mg2+/Mn2+ dependent 1F)	1	0.248	0.156	0.214	inactive
7	IL17RD (interleukin 17 receptor D)	1	-0.568	-1.01	-0.112	inactive
8	MIER3 (MIER family member 3)	1	-0.56	-0.152	0.216	inactive
9	GPR141 (G protein-coupled receptor 141)	1	-0.11	1.03	1.07	inactive
10	ZNF317 (zinc finger protein 317)	1	0.047	0.019	-0.0126	inactive
11	SPATA31J1 (SPATA31 subfamily J member 1)	1	0.435	0.271	0.203	inactive
12	SPATA31J1 (SPATA31 subfamily J member 1)	2	0.421	0.00584	0.0875	inactive
13	CTXN2 (cortexin 2)	1	2.22	3.31	2.56	active
14	CALML4 (calmodulin like 4)	1	0.65	0.581	0.309	inactive
15	GTPBP10 (GTP binding protein 10)	1	3.79	2.81	2.24	active
16	RGPD1 (RANBP2 like and GRIP domain containing 1)	1	-0.911	-1.28	-1.36	inactive
17	LZTFL1 (leucine zipper transcription factor like 1)	1	2.62	2.36	1.76	active
18	LINC03010 (long independently transcribed non-coding RNA 3010)	1	0.38	0.719	1.32	inactive
19	LOC440999 (retired record)	1	1.62	1.58	1.25	inactive
20	GABRG1 (gamma-aminobutyric acid type A receptor subunit gamma1)	1	-0.87	-1.26	-1.63	inactive
21	MIR99AHG (mir-99a-let-7c cluster host gene)	1	0.52	1.21	0.507	inactive
22	EMILIN3 (elastin microfibril interfacer 3)	1	1.39	0.219	1.44	inactive
23	POMC (proopiomelanocortin)	1	-1.37	1.33	-1.36	inactive
24	NIPA1 (NIPA magnesium transporter 1)	1	-0.168	-0.329	-1.12	inactive
25	CNPY2 (canopy FGF signaling regulator 2)	1	2.28	0.897	-0.662	inactive
26	NLGN4Y (neuroligin 4 Y-linked)	1	0.511	0.981	0.306	inactive
27	DALRD3 (DALR anticodon binding domain containing 3)	1	0.282	-0.0404	1.6	inactive
28	LCT (lactase)	1	1.1	0.961	1.4	inactive
29	NT5DC3 (5'-nucleotidase domain containing 3)	1	-1.69	-0.488	0.226	inactive
30	OTX2 (orthodenticle homeobox 2)	1	-0.734	-0.39	-1.58	inactive
31	LOC441045 (retired record)	1	0.417	0.0106	0.438	inactive
32	CCNK (cyclin K)	1	-0.325	-0.469	-0.927	inactive
33	ADAM11 (ADAM metallopeptidase domain 11)	1	-1.62	-1.57	-1.68	inactive
34	C6orf47 (chromosome 6 open reading frame 47)	1	0.101	0.0131	0.875	inactive
35	RASGEF1B (RasGEF domain family member 1B)	1	0.601	0.749	-0.274	inactive
36	BCAS1 (brain enriched myelin associated protein 1)	1	2.94	1.1	2.58	active
37	FBXW9 (F-box and WD repeat domain containing 9)	1	0.00569	-0.249	-0.359	inactive
38	VSX1 (visual system homeobox 1)	1	-1.43	-1.79	-1.67	inactive
39	ANAPC5 (anaphase promoting complex subunit 5)	1	-2.09	-1.94	-2.69	active
40	LOC400923 (retired record)	1	2.94	2.99	3.13	active
41	RPL4P5 (ribosomal protein L4 pseudogene 5)	1	-0.358	-0.509	-0.591	inactive
42	THAP6 (THAP domain containing 6)	1	-0.762	-0.52	-1.02	inactive
43	IRF2BP2 (interferon regulatory factor 2 binding protein 2)	1	-1.8	-1.74	-1.91	inactive
44	YBX1 (Y-box binding protein 1)	1	1.18	0.7	1.24	inactive
45	BLNK (B cell linker)	1	1.11	0.218	0.457	inactive
46	KRT18P21 (keratin 18 pseudogene 21)	1	0.427	0.737	-0.0704	inactive
47	GPR148 (G protein-coupled receptor 148)	1	-1.43	-1.82	-1.55	inactive
48	ACACA (acetyl-CoA carboxylase alpha)	1	-0.285	-1.24	-1.18	inactive
49	LOC442121 (retired record)	1	-1.26	-1.08	-0.842	inactive
50	LOC392314 (retired record)	1	-0.397	0.0656	0.0448	inactive
51	CCDC27 (coiled-coil domain containing 27)	1	-0.901	-0.623	-0.527	inactive
52	RECQL (RecQ like helicase)	1	-0.574	0.21	-0.386	inactive
53	GTF3C5 (general transcription factor IIIC subunit 5)	1	-0.343	-1.82	-2.1	inactive
54	ZNF426 (zinc finger protein 426)	1	-2	-2.17	-1.9	active
55	PUDP (pseudouridine 5'-phosphatase)	1	0.494	0.364	-0.256	inactive
56	NPAP1 (nuclear pore associated protein 1)	1	1.76	0.333	2.28	inactive
57	USHBP1 (USH1 protein network component harmonin binding protein 1)	1	2.99	0.955	0.6	inactive
58	NEO1 (neogenin 1)	1	-0.713	-0.0354	0.378	inactive
59	ZNF528-AS1 (ZNF528 antisense RNA 1)	1	0.0191	0.261	0.117	inactive
60	TRMT13 (tRNA methyltransferase 13)	1	0.872	0.417	-0.016	inactive
61	LINC00960 (long independently transcribed non-coding RNA 960)	1	0.318	0.567	0.775	inactive
62	CDKN2C (cyclin dependent kinase inhibitor 2C)	1	0.19	-0.645	-0.589	inactive
63	EPHB1 (EPH receptor B1)	1	0.425	0.472	0.269	inactive
64	GFOD2 (Gfo/Idh/MocA-like oxidoreductase domain containing 2)	1	-1.02	-1.13	-0.253	inactive
65	TNNI2 (troponin I2, fast skeletal type)	1	1.07	-0.954	1.95	inactive
66	NPIPB13 (nuclear pore complex interacting protein family, member B13)	1	-0.098	-0.0685	-0.14	inactive
67	LINC00477 (long independently transcribed non-coding RNA 477)	1	0.4	0.394	0.414	inactive
68	ZNF663P (zinc finger protein 663, pseudogene)	1	-0.0301	-0.436	-0.48	inactive
